The values below come from PMC12209456, “Serine/threonine/tyrosine kinase 1 drives pancreatic carcinogenesis via GSK3β sequestration-mediated Wnt/β-catenin pathway hyperactivation” (Signal Transduction and Targeted Therapy, 2025).

Chains of the proteins cited; added tags and fusions are not shown.
UniProt P49841: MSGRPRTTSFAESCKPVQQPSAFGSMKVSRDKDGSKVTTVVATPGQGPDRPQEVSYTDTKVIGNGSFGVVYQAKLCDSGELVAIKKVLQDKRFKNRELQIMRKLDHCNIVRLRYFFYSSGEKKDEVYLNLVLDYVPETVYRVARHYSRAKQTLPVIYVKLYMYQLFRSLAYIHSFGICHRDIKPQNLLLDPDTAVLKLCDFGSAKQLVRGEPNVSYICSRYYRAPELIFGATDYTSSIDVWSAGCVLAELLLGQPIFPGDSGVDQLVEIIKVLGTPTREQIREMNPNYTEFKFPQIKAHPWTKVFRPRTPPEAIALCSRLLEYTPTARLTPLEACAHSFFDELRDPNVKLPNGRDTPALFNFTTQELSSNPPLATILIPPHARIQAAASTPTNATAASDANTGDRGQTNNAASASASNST
UniProt P35222: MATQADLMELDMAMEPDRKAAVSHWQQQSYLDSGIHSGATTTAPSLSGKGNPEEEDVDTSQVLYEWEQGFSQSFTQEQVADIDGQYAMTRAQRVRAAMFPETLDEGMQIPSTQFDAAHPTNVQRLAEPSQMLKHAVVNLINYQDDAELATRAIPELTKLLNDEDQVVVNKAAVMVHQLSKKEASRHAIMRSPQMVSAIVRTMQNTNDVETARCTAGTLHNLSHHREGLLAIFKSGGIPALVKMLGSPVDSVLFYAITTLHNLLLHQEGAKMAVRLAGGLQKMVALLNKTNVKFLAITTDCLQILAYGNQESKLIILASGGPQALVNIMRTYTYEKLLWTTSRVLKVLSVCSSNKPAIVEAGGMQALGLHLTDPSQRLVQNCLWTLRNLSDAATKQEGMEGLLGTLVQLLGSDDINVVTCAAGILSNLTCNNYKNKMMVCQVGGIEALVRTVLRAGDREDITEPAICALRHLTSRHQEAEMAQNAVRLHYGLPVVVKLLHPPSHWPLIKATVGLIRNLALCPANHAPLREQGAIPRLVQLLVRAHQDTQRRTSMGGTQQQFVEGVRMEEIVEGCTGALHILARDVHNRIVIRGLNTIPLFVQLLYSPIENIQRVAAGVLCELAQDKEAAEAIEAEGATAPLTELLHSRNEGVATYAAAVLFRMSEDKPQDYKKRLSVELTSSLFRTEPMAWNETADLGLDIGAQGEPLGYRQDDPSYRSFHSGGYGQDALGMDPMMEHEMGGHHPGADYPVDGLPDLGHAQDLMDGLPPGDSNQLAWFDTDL

Results are given in words; binding and its absence hold for the method and conditions named. In cells and extracts the contact can be indirect. Here binding means that the protein was enriched with, or labelled near, the bait; the list need not be complete. Where a sequence is shown, tags or fusion partners need not be part of it.

The test addresses T1, Flag-tagged STYK1 (UniProt Q6J9G0).
T1 sequence: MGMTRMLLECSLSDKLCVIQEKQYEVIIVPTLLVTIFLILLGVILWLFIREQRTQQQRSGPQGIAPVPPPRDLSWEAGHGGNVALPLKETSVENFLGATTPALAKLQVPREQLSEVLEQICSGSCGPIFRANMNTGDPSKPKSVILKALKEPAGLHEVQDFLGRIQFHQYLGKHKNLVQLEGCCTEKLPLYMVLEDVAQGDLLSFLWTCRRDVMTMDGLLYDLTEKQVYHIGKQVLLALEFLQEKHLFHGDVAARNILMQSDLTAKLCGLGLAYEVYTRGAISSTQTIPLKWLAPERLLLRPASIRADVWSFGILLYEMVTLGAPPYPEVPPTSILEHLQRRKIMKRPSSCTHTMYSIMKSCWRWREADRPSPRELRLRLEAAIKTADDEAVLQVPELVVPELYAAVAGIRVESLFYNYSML
Kind of test: affinity purification with mass spectrometry; Flag-affinity purification of STYK1-associated complexes from transfected HEK293T cells, silver staining, LC-MS/MS.

For the substance “Glycogen synthase kinase 3β (GSK3β), endogenous (from UniProt P49841 1-420)”, the binding result is “binds”. In the case of “β-catenin, endogenous (from UniProt P35222 1-781)” it was “binds”.
